# Experimental data: PubChem BioAssay AID504834 (National Center for Advancing Translational Sciences (NCATS), 2011)
# About 22,000 (6.9%) of roughly 320,000 compounds were called active. Inconclusive results, whose numbers are uncertain, are shown with a selection of clear calls. Calls follow the shape of the dose curve; as a rule, active = well fitted inhibition curve with a large enough effect; inconclusive = small, poorly fitted or top-dose-only effect, or another doubt; inactive = no such curve, though single readings can be large or run the other way. Where the call is inconclusive, the potency comes from a doubtful curve fit.
# Experiment: Primary qHTS for delayed death inhibitors of the malarial parasite plastid, 96 hour incubation
# Settings: P. falciparum luciferase reporter growth; series mostly up to 28.7 µM
# Summary of the method: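 Parasite growth measured via integrated firefly luciferase reporter in P. falciparum. Infected erythrocytes at 2% hematocrit, 0.05% parasitemia final were treated 96 hours at 37 C under 5% CO2, and luminescence was read.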
# % is scaled to controls: 0 for no effect and ±100 for the full control effect; potency is read from the fitted curve at half-maximal effect.
SMILES,Potency,"activity change, negative = inhibition"
Cc1ccccc1-n1c(O)c(/C=C2/C(c3ccccc3)=Nc3ccccc32)c(=O)[nH]c1=O,inactive,–
CCCCCn1c(C(Cc2ccccc2)NC(C)=O)nc2ccccc21 (configuration not stated),"inconclusive: 18.5 µM [inhibitor, single point]",–
Cc1cc(=O)c(C(=O)OC(C)C(=O)NC(N)=O)nn1-c1ccc(Cl)cc1 (configuration not stated),inactive,–
Cc1cc(C)cc(N2CCN(C(=O)N3CCOCC3)CC2)c1,active: 6.57 µM,–
COCC(=O)N1CCN(c2cccc(Cl)c2)CC1,"inconclusive: 18.5 µM [inhibitor, single point]",–
NC(=O)C1CCN(CC(=O)Nc2ccccc2C(=O)NC2CC2)CC1,"inconclusive: 14.7 µM [inhibitor, single point]",–
c1ccc(CN2CCN(c3nc4ccccc4n4cnnc34)CC2)cc1,inactive,–
CCCN1CCN(C(=O)c2cc3c(s2)-c2ccccc2OC3)CC1,inactive,–
Cc1c([C@@H]2C[C@H]3CN(Cc4cccc(Cl)c4)C(=O)[C@]34CCCN24)cnn1C,"inconclusive: 18.5 µM [inhibitor, single point]",–
COc1ccc(S(=O)(=O)NCCC(=O)N2CCCC2)cc1N(C)S(C)(=O)=O,inactive,–
CCCN1CCN(CCCNC(=O)CCn2nc(-c3ccccc3)ccc2=O)CC1,"inconclusive: 18.5 µM [inhibitor, single point]",–
COc1cccc(CC2(CO)CCCN(Cc3[nH]c4ccc(C)cc4c3C)C2)c1 (configuration not stated),active: 5.86 µM,–
CCOc1ccccc1C(=O)N(C)Cc1cc2cc(OC)ccc2[nH]c1=O,"inconclusive: 9.28 µM [inhibitor, single point]",–
O=c1c2ccccc2cnn1-c1ccc(Br)cc1,inactive,–
Cc1ccsc1/C=N/N1CCN(C2c3ccccc3-c3ccccc32)CC1,inactive,–
Clc1ccc2c(c1)C(N1CCNCC1)=Nc1ccccc1O2,"inconclusive: 18.5 µM [inhibitor, partial curve, poor fit]",inactive: 5.63% [at 2.67 µM]
CCOC(=O)C1CCN(S(=O)(=O)c2ccc(Cl)s2)CC1,"inconclusive: 0.828 µM [inhibitor, partial curve, poor fit]",–
CCOc1cc(/C=C/c2cccc[n+]2C)ccc1OCC(=O)Nc1ccc(C)cc1,active: 5.22 µM,–
CC(C)N=C(N)/N=C(\N)Nc1ccc(Cl)cc1,active: 0.361 µM,–
OCCN(CCO)c1ccc(C(c2ccccc2Cl)c2ccc(N(CCO)CCO)cc2Cl)c(Cl)c1,"inconclusive: 1.85 µM [inhibitor, partial curve, poor fit]",–
O=C(CCCN1C(=O)c2ccccc2C1=O)Nc1sc2c(c1C(=O)NCc1ccco1)CCC2,inactive,–

# Five structures from above, ordered by molecular weight, high to low:
SMILES,Potency,"activity change, negative = inhibition"
Cc1ccccc1-n1c(O)c(/C=C2/C(c3ccccc3)=Nc3ccccc32)c(=O)[nH]c1=O,inactive,–
Cc1cc(=O)c(C(=O)OC(C)C(=O)NC(N)=O)nn1-c1ccc(Cl)cc1 (configuration not stated),inactive,–
NC(=O)C1CCN(CC(=O)Nc2ccccc2C(=O)NC2CC2)CC1,"inconclusive: 14.7 µM [inhibitor, single point]",–
CCCN1CCN(C(=O)c2cc3c(s2)-c2ccccc2OC3)CC1,inactive,–
Cc1cc(C)cc(N2CCN(C(=O)N3CCOCC3)CC2)c1,active: 6.57 µM,–
